PubChem BioAssay AID1347076 (National Center for Advancing Translational Sciences (NCATS), 2019)
Out of some 400,000 compounds screened, about 13,000 (3.2%) were called active. The shares of active, inactive and inconclusive entries below differ from those in the screen. Calls follow the shape of the dose curve; as a rule, active = well fitted cell-killing curve with a large enough effect; inconclusive = small, poorly fitted or top-dose-only effect, or effect the other way; inactive = flat fitted curve, though single readings scatter. Potencies beside an inconclusive call are fits to weak or partial responses and may not hold up.

Assay: qHTS assay for MDR1-selective chemotherapeutics: Primary screen using the drug-selected MDR subline cells KB-V1; also: nearly all actives have a fitted effect of over 60% in size
Details: KB-V1 MDR cells viability, CellTiter-Glo, 72 h; activity change, negative = cytotoxicity: at 46.1 µM (top of the series)
Method in brief: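 KB-V1 MDR subline cells in DMEM (phenol-red free, 10% FBS) exposed to compounds in qHTS concentration series for 72 h at 37 degrees C. Viability read by CellTiter-Glo luminescence; concentration-effect curves fitted after normalization and correction.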
% is scaled to controls: 0 for no effect and ±100 for the full control effect; potency is read from the fitted curve at half-maximal effect.

Row | SMILES | Potency | activity change, negative = cytotoxicity
1 | CN(Cc1ccccc1)C(=O)COC(=O)COc1ccc(Cl)cc1 | inconclusive: 18.4 µM [cytotoxic, single point] | –
2 | Cc1ccc(C(=O)N/N=C/c2nc3ccccc3n2C)cc1 | inconclusive: 7.31 µM [cytotoxic, partial curve] | –
3 | O=S(=O)(Nc1cccc2c1CCCC2)c1ccc(Cl)cc1 | inconclusive: 20.6 µM [cytotoxic, single point] | –
4 | O=C(/C=C/c1ccco1)N(Cc1cccc(Br)c1)C1CCS(=O)(=O)C1 (stereo not drawn) | inconclusive: 14.6 µM [cytotoxic, single point] | –
5 | COc1cccc2[nH]c3c(N4CCCC(C)C4)ncnc3c12 (stereo not drawn) | active: 6.51 µM | –
6 | CN(Cc1ccccc1)C(=O)c1[nH]cnc1C(=O)NCCCCCNC(=O)OC(C)(C)C | inactive | –
7 | O[C@H]1C[C@H](c2ccc(Cl)cc2)N(Cc2cccs2)C[C@@H]1n1cc(-c2ccc(F)cc2)nn1 | inconclusive: 18.4 µM [cytotoxic, single point] | –
8 | C/C(=N\Nc1nc(C)cc(-c2ccccc2)n1)c1cccc(N)c1 | inconclusive: 5.8 µM [cytotoxic, full curve] | –
9 | C=CCN1CC(c2nc3ccccc3n2Cc2ccccc2)CC1=O (stereo not drawn) | active: 11.6 µM | –
10 | COCCCn1cc(CN2CC(N3CCN(Cc4ccccc4F)CC3)CS2(=O)=O)nn1 (stereo not drawn) | inconclusive: 32.6 µM [rising, single point] | –
11 | O=c1c2cc3c(cc2nc2sc(Nc4cccc([N+](=O)[O-])c4)nn12)OCO3 | inactive | –
12 | O=C(NCCc1ccccc1)N1c2ccccc2Sc2ccccc21 | inconclusive: 29.1 µM [cytotoxic, partial curve, poor fit] | –
13 | CC(Sc1nc(C(C)(C)C)cc(-c2ccccc2)c1C#N)C(=O)Nc1ccccc1 (stereo not drawn) | inactive | –
14 | CCc1ccc(CNC(=O)C2CCCN(c3nnc(C)c4c(C)n(-c5ccccc5)nc34)C2)cc1 (stereo not drawn) | inconclusive: 29.1 µM [cytotoxic, single point] | –
15 | Cc1ccc(Cl)c(NC(=O)CN(C)CC(=O)Nc2ccc(F)c(F)c2F)c1Cl | inconclusive: 20.6 µM [cytotoxic, partial curve] | –
16 | CCOC(=O)c1cn(Cc2ccc(C)cc2)c2cc(F)ccc2c1=O | – | inconclusive: -9.92%
17 | O=C(NCc1ccc2c(c1)OCO2)c1sccc1Br | inactive | –
18 | COc1ccccc1C(=O)Nc1nc2n(n1)C(c1ccc(F)cc1)C=C(c1ccc(Cl)cc1)N2 (stereo not drawn) | inconclusive: 29.1 µM [cytotoxic, single point] | –
19 | Cc1cccc(CN2CCC(CNC(=O)Cn3ncc4c([nH]c5ccc(C)cc54)c3=O)CC2)c1 | inactive | –
20 | Cc1c(C(=O)Nc2ccccc2[N+](=O)[O-])csc1-c1ccccc1 | inconclusive: 18.4 µM [cytotoxic, single point] | –
21 | CCOC(=O)c1ccccc1NC(=O)CC(C)CC(=O)O (stereo not drawn) | inconclusive: 14.6 µM [rising, partial curve, poor fit] | –
22 | CCN1CCN(Cc2ccc(NC(=O)c3ccc(C)c(/C=C/c4cnc(Nc5cc(N6CCNCC6)nc(C)n5)cn4)c3)cc2C(F)(F)F)CC1 | inconclusive: 29.1 µM [cytotoxic, single point] | –

Row | SMILES | Potency | activity change, negative = cytotoxicity
23 | CCOC(=O)c1ccc(N=Cc2nc3ccccc3n2C)cc1 | inactive | –
24 | Cc1ccc(SCc2ccc(C(=O)Nc3ccccc3C(=O)NC(C)C)cc2)cc1 | inactive | –
25 | O=C(Oc1ccc[nH]c1=O)c1ccccc1 | – | inconclusive: 7%
26 | c1ccc(CC2CCN(c3ncnc4sccc34)CC2)cc1 | inactive | –
27 | O=S(=O)(c1ccc(Cl)c(S(=O)(=O)N2CCCC2)c1)N1CCCC1 | inconclusive: 18.4 µM [cytotoxic, single point] | –
28 | COc1ccccc1NC(=O)C1=C(C)Nc2nc(SC)nn2C1c1ccccc1Cl (stereo not drawn) | inconclusive: 0.0073 µM [cytotoxic, full curve] | –
29 | COc1cc(CC(=O)C(=O)O)oc(=O)c1 | inconclusive: 20.6 µM [rising, partial curve, poor fit] | –
30 | Cc1cc(NC(=O)CSc2nnc(-c3ccccc3)o2)no1 | inactive | –
31 | CC(C)(C)c1cc(NC(=O)C2(C)CCN2C(=O)C2(c3ccccc3)CCCC2)no1 (stereo not drawn) | inconclusive: 16.4 µM [cytotoxic, partial curve] | –
32 | O=C(COc1ccc2c(c1)oc(=O)c1ccccc12)NCC1CCC(C(=O)O)CC1 (stereo not drawn) | inconclusive: 25.9 µM [rising, single point] | –
33 | O=C(CSc1ccc(-c2ccccn2)nn1)Nc1ccccc1 | inconclusive: 7.31 µM [cytotoxic, partial curve, poor fit] | –
34 | COc1ccc(-n2c(Cc3cccn3C)nnc2SCC(=O)Nc2ccc(C)cc2)cc1 | inactive | –
35 | O=C1NC(Cc2ccc(O)cc2)c2nc3ccc(Br)cc3c(=O)n2-c2ncccc21 (stereo not drawn) | inactive | –
36 | CCN1CCN(C(=S)Nc2ccc(Cl)c(Cl)c2)CC1 | inconclusive: 23.1 µM [cytotoxic, partial curve, poor fit] | –
37 | COC(=O)c1cc2sc(Cl)cc2n1CC(=O)Nc1cccc(SC)c1 | inconclusive: 8.2 µM [cytotoxic, partial curve, poor fit] | –
38 | O=C(O)c1cc(Cl)c(Cl)cc1C(=O)Nc1cccc2cccnc12 | inconclusive: 13 µM [rising, partial curve, poor fit] | –
39 | CCN(CC)S(=O)(=O)c1cc(-c2nnc(-c3ccc(Br)cc3)o2)ccc1Br | inconclusive: 11.6 µM [cytotoxic, partial curve] | –
40 | COC(=O)COc1nsnc1N1CCOCC1 | inconclusive: 3.66 µM [rising, partial curve, poor fit] | –
41 | O=C(CSc1nc(-c2cccc(F)c2)[nH]c1-c1ccccc1)Nc1ccc2c(c1)OCO2 | inconclusive: 29.1 µM [cytotoxic, single point] | –
42 | C=CCN1C=CC(=O)[C@@H](OC(=O)Nc2ccc(Br)cc2)[C@H]1c1ccccc1Br | inconclusive: 10.3 µM [cytotoxic, partial curve, poor fit] | –
43 | CCc1ccccc1N(C)C(=O)C1CCCN(c2ncnc3c2nc2n3CCCCC2)C1 (stereo not drawn) | inconclusive: 6.51 µM [cytotoxic, partial curve] | –

An excerpt from above in order of SMILES length, low to high:
Row | SMILES | Potency | activity change, negative = cytotoxicity
40 | COC(=O)COc1nsnc1N1CCOCC1 | inconclusive: 3.66 µM [rising, partial curve, poor fit] | –
36 | CCN1CCN(C(=S)Nc2ccc(Cl)c(Cl)c2)CC1 | inconclusive: 23.1 µM [cytotoxic, partial curve, poor fit] | –
33 | O=C(CSc1ccc(-c2ccccn2)nn1)Nc1ccccc1 | inconclusive: 7.31 µM [cytotoxic, partial curve, poor fit] | –
2 | Cc1ccc(C(=O)N/N=C/c2nc3ccccc3n2C)cc1 | inconclusive: 7.31 µM [cytotoxic, partial curve] | –
1 | CN(Cc1ccccc1)C(=O)COC(=O)COc1ccc(Cl)cc1 | inconclusive: 18.4 µM [cytotoxic, single point] | –
20 | Cc1c(C(=O)Nc2ccccc2[N+](=O)[O-])csc1-c1ccccc1 | inconclusive: 18.4 µM [cytotoxic, single point] | –
43 | CCc1ccccc1N(C)C(=O)C1CCCN(c2ncnc3c2nc2n3CCCCC2)C1 (stereo not drawn) | inconclusive: 6.51 µM [cytotoxic, partial curve] | –
15 | Cc1ccc(Cl)c(NC(=O)CN(C)CC(=O)Nc2ccc(F)c(F)c2F)c1Cl | inconclusive: 20.6 µM [cytotoxic, partial curve] | –
19 | Cc1cccc(CN2CCC(CNC(=O)Cn3ncc4c([nH]c5ccc(C)cc54)c3=O)CC2)c1 | inactive | –
